Consider four molecules from PMC5645313.

Amino acid sequences for entries named in this document (tags omitted).
UniProt O49686: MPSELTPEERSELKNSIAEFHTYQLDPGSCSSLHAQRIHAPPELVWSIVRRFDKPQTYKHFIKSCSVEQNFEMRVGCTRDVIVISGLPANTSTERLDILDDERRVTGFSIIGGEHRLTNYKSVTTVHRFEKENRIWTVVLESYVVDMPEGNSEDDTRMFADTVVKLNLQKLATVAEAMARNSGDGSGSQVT

Changes are numbered by the printed parent chain. Names may count otherwise. Results are given in words; binding and its absence hold for the method and conditions named. For some assays here: Binding seen in cells or lysates may run through a third protein. Some results given as binding are weak or reduced against the parent protein; the word gives no strength. Where a sequence is shown, tags or fusion partners need not be part of it.

Assay [1] deals with T1, GID1A–GA–DELLA complex (biotin-GID1A with V5-GAI and 1 µM GA3) (Arabidopsis thaliana) (UniProt Q9MAA7+Q9LQT8).
T1 sequence (chain, biotin (added by BirA during cell-free synthesis)) 1: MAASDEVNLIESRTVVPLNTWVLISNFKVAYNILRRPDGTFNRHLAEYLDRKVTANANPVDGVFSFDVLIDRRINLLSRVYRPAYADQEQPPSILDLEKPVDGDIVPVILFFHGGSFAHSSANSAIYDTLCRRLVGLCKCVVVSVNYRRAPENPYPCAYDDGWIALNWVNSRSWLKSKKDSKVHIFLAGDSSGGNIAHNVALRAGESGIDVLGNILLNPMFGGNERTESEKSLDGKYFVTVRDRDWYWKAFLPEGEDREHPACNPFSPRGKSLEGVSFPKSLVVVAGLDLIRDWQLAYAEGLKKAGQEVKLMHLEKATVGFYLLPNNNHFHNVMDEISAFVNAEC
T1 sequence (chain, biotin (added by BirA during cell-free synthesis)) 2: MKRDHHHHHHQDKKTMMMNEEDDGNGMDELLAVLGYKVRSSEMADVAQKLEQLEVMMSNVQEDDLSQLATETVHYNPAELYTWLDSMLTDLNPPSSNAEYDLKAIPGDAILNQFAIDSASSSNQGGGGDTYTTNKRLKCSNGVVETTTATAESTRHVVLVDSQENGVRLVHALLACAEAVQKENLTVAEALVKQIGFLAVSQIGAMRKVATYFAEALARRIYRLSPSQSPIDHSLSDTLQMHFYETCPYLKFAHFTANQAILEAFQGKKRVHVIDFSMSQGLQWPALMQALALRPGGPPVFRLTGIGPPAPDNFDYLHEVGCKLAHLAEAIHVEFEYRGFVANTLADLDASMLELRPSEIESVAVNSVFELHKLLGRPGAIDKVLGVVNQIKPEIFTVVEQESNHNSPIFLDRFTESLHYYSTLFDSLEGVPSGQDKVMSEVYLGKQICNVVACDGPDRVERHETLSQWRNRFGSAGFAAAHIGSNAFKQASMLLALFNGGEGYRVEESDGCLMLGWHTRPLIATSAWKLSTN
Kind of assay: AlphaScreen or HTRF; 0.5 µl biotin-GID1A, 0.5 µl FLAG-GARU or FLAG-GAI, 0.5 µl V5-GARU or V5-GAI, with or without 1 µM GA3 (1% DMSO), AlphaScreen buffer, 15 µl, 25 °C, 1 h; wheat cell-free products. (In general: Alpha assays give light when donor and acceptor beads are brought close together.)

Assay [2] concerns the target T2, biotin-GID1A (biotinylated GA receptor GID1A) (Arabidopsis thaliana) (UniProt Q9MAA7).
T2 sequence (chain, biotin (added by BirA during cell-free synthesis)): T1 sequence (chain, biotin (added by BirA during cell-free synthesis)) 1
The description is as above.

Assay [3] addresses T2, biotin-GID1A (biotinylated GA receptor GID1A) (Arabidopsis thaliana). Put plainly: AlphaScreen or HTRF; FLAG-GARU or its mutants pre-incubated with TAGK2-His (wild type or kinase dead) in kinase buffer with 100 µM ATP at 26 °C for 90 min, then 1 µl of the mixture with biotin-GID1A in AlphaScreen buffer; signal relative to non-phosphorylated WT FLAG-GARU with biotin-GID1A.
Assay [4] has the same target. Kind of assay: AlphaScreen or HTRF; screen of 204 FLAG-tagged Arabidopsis RING-type E3 ligases against biotinylated GID1A; 1 µl of each wheat cell-free product in 15 µl AlphaScreen buffer (100 mM Tris-HCl pH 8.0, 0.1% Tween20, 1 mg/ml BSA), 25 °C, 1 h; streptavidin donor beads, anti-FLAG M2 antibody with Protein A acceptor beads; background controlled with E. coli DHFR.

Assay [5] addresses T3, GID1A-cYFP (C-terminal half of YFP fused GID1A) (Arabidopsis thaliana) (UniProt Q9MAA7).
T3 sequence: T1 sequence (chain, biotin (added by BirA during cell-free synthesis)) 1
Put plainly: split reporter; BiFC in Arabidopsis mesophyll protoplasts, GID1A-cYFP and nYFP-GARU co-expressed, with or without 10 µM GA3 for 6 h; YFP fluorescence in the nucleus.

The target in assay [6] is T4, GID1A-V5 (Arabidopsis thaliana) (UniProt Q9MAA7).
T4 sequence: T1 sequence (chain, biotin (added by BirA during cell-free synthesis)) 1
Kind of assay: pull-down; in vitro pull-down (co-immunoprecipitation) of wheat cell-free recombinant proteins: HA-GARU pre-incubated with FLAG-TAGK2 or FLAG-TAGK3 (wild type or kinase dead) in kinase buffer at 26 °C for 60 min, then with GID1A-V5 or V5-PYR1 at 26 °C for 60 min; anti-V5 antibody and Protein G Sepharose; wash 50 mM Tris-HCl pH 8.0, 150 mM NaCl, 1% Triton X-100; blot with anti-HA.

Assay [7] concerns the target V5-PYR1 (Arabidopsis thaliana) (UniProt O49686). The assay is described as above.

B1: FLAG-GARU (GA receptor RING E3 ubiquitin ligase, at2g40830), wild type (enzyme, UniProt O22197 1-328)
chain: MSSSRNTHWCHRCQRAVRLHGQEPVCFYCGGGFVEELDMAQASPFDMFRSHRGVVERDQTFDLMDAFSVFMRNRLAERSHDREIRGRTISSGPENFPGLAPLLIFGGQVPYRLTGDNAVEALFNGGSPGIGITRGNTGDYFFGPGLEELFEQLSAGTTRRGPPPAPRSAIDALPTIKIAQRHLRSSDSNCPVCKDEFELGSEAKQMPCNHIYHSDCIVPWLVQHNSCPVCRQELPSASGPSSSQNRTTPTRNYRSSSSSSSSNSRENGNERRNPFSSFWPFRSSGSSSSSTQNRGGTRNSDTSDENHNYHQQQHQQSYMGYSGWPFDY
As for B1, the binding result in assay [1], in assay [2], in assay [3] and in assay [4] was “binds” throughout.

B2: nYFP-GARU (N-terminal half of YFP fused GARU) (enzyme, UniProt O22197 1-328)
chain: B1 chain
In the case of B2, the binding entry in assay [5] is on record as “binds”.

B3: FLAG-GARU^Y321F (enzyme, UniProt O22197 1-328)
chain: B1 chain with Y321F
Turning to B3, the binding result in assay [3] is given as “binds”.

B4: HA-GARU (enzyme, UniProt O22197 1-328)
chain: B1 chain
As for B4, the binding entry was “binds” in assay [6] and “no binding” in assay [7].
